Source: the supplement of paper PMC9015667
Structures can show the parent of a compound that is named as a salt. The list shows a part of the results. Most values come without repeats; read them as rough.

Legend:
Assay in all cases: reduction in cell viability relative to untreated/vehicle; higher = more growth inhibition
Details in all cases: 200 nM; 72 h
M229P = tested on: M229P (parental melanoma line)
M229R = tested on: M229R (matched melanoma line resistant to BRAF inhibitors)
M238P = tested on: M238P (parental melanoma line)
M238R = tested on: M238R (matched melanoma line resistant to BRAF inhibitors)
M249P = tested on: M249P (parental melanoma line)
M249R = tested on: M249R (matched melanoma line resistant to BRAF inhibitors)
UACC62P = tested on: UACC62P (parental melanoma line)
UACC62R = tested on: UACC62R (matched melanoma line resistant to BRAF inhibitors)

Measured: reduction in cell viability

C=C1C(=O)[C@]23[C@H](O)[C@H]1CC[C@H]2[C@@]12CO[C@]3(O)[C@@H](O)[C@@H]1C(C)(C)CC[C@@H]2O [Oridonin]
< 0%: all assays above

COC(=O)N[C@H](C(=O)N[C@@H](Cc1ccccc1)[C@@H](O)CN(Cc1ccc(-c2ccccn2)cc1)NC(=O)[C@@H](NC(=O)OC)C(C)(C)C)C(C)(C)C [Atazanavir sulfate]
< 0%: all assays above

CN(C)C1CCN(C(=O)c2ccc(NC(=O)Nc3ccc(-c4nc(N5CCOCC5)nc(N5CCOCC5)n4)cc3)cc2)CC1
49%: M238P
56.6%: UACC62P
55.4%: M249R
49.6%: M238R
69%: M249P
55.2%: UACC62R
58.4%: M229P
40.6%: M229R

COc1cc(F)c(C(C)C)cc1-c1ccc(C(F)(F)F)cc1CN1C(=O)O[C@H](c2cc(C(F)(F)F)cc(C(F)(F)F)c2)[C@@H]1C [Anacetrapib]
< 0%: all assays above

C[C@H](N=C(NC#N)Nc1cccc2ncccc12)c1ccccc1
< 0%: all assays above

CCn1cc(-c2ccnc3[nH]c(-c4cccc(CN(C)C)c4)cc23)c(-c2ccc(NC(=O)N(C)C)cc2)n1
16.9%: M238P
57.5%: UACC62R
1.2%: UACC62P
9.33%: M238R
< 0%: all other assays above

CN[C@@H]1C[C@H]2O[C@@](C)([C@@H]1OC)n1c3ccccc3c3c4c(c5c6ccccc6n2c5c31)C(=O)N[C@H]4O [7-Hydroxystaurosporine]
20.6%: M229P
52.9%: UACC62R
45.6%: UACC62P
37.5%: M249R
81.3%: M238R
69.5%: M229R
10.4%: M249P
45.7%: M238P

NC(=O)N1c2ccccc2CC(=O)c2ccccc21 [Oxcarbazepine]
< 0%: all assays above

Cn1cc(-c2cnn3c(N)c(Br)c([C@@H]4CCCNC4)nc23)cn1
28.5%: UACC62R
2.26%: M229P
7.35%: UACC62P
2.07%: M238R
34.6%: M238P
11.6%: M249P
44.3%: M229R
32%: M249R

CC1=C(CO)C(=O)OC([C@@H](C)C2CC[C@H]3C4C[C@H]5O[C@]56[C@@H](O)C=CC(=O)[C@]6(C)C4CC[C@]23C)C1 (stereo partly drawn)
36.2%: M229R
15.1%: M249R
46.3%: M229P
41.3%: M238P
59.8%: M238R
48.8%: UACC62P
60.9%: UACC62R
19.5%: M249P

C=C1c2cccc(O)c2C(=O)C2=C(O)[C@]3(O)C(=O)C(C(N)=O)=C(O)[C@@H](N(C)C)[C@@H]3[C@@H](O)[C@H]12 [Methacycline hydrochloride]
< 0%: all assays above

O=C1C[C@@H](c2ccc(O)cc2)Oc2cc(O)cc(O)c21 [Naringenin]
10.7%: M249R
< 0%: all other assays above

CCOC(=O)N[C@@H]1CC[C@@H]2[C@@H](C1)C[C@H]1C(=O)O[C@H](C)[C@H]1[C@H]2/C=C/c1ccc(-c2cccc(F)c2)cn1 [Vorapaxar]
< 0%: all assays above

CC(C)c1ccc2c(c1)c(SC(C)(C)C)c(CC(C)(C)C(=O)O)n2Cc1ccc(Cl)cc1
< 0%: all assays above

Cc1cn([C@H]2C[C@H](N=[N+]=[N-])[C@@H](CO)O2)c(=O)[nH]c1=O [Zidovudine]
2.88%: UACC62P
< 0%: all other assays above

O=C(NC1CCNCC1)c1n[nH]cc1NC(=O)c1c(Cl)cccc1Cl
56.6%: M238R
77.5%: UACC62P
86.1%: M238P
56.3%: M229P
78.6%: UACC62R
88.6%: M249P
94.2%: M249R
56.1%: M229R

Nc1ncnc2c1ncn2[C@@H]1O[C@H](CO)C[C@H]1O [Cordycepin]
< 0%: all assays above

c1ccc([C@H]2CN3CCSC3=N2)cc1 [L-tetramisol]
< 0%: all assays above

O[C@@H](CNC[C@H](O)[C@H]1CCc2cc(F)ccc2O1)[C@@H]1CCc2cc(F)ccc2O1 (racemic) [rac Nebivolol hydrochloride]
< 0%: all assays above

N[C@@H]1CN(c2c(F)cc3c(=O)c(C(=O)O)cn([C@@H]4C[C@@H]4F)c3c2Cl)CC12CC2 [Sitafloxacin]
< 0%: all assays above

CC(=O)Nc1ccc([C@H](C)C(=O)Nc2ncc(C(C)C)s2)cc1
3.43%: M249R
< 0%: all other assays above

O=c1[nH]cnc2c1ncn2[C@H]1CC[C@@H](CO)O1 [2,3-Dideoxyinosine]
10.3%: M249R
< 0%: all other assays above

Arranged by SMILES length (smallest number first): part of the list above.
c1ccc([C@H]2CN3CCSC3=N2)cc1 [L-tetramisol]
< 0%: all assays above

O=c1[nH]cnc2c1ncn2[C@H]1CC[C@@H](CO)O1 [2,3-Dideoxyinosine]
10.3%: M249R
< 0%: all other assays above

CC1=C(CO)C(=O)OC([C@@H](C)C2CC[C@H]3C4C[C@H]5O[C@]56[C@@H](O)C=CC(=O)[C@]6(C)C4CC[C@]23C)C1 (stereo partly drawn)
36.2%: M229R
15.1%: M249R
46.3%: M229P
41.3%: M238P
59.8%: M238R
48.8%: UACC62P
60.9%: UACC62R
19.5%: M249P

(more compounds)

NC(=O)c1cccc2[nH]c(-c3ccc(C4CCCN4)cc3F)nc12 (stereo not drawn)
< 0%: all assays above

Nc1nc(Cl)nc2c1ncn2[C@H]1C[C@H](O)[C@@H](CO)O1 [Cladribine]
91.2%: M238P
80.1%: UACC62R
30.2%: M229R
5.94%: M229P
45.4%: M249R
23.1%: M249P
60.6%: UACC62P
62.6%: M238R

Nc1c2c(nc3ccccc13)CCCC2 [Tacrine]
< 0%: all assays above

CCOC(=O)N1CCN(/[N+]([O-])=N/Oc2ccc([N+](=O)[O-])cc2C#N)CC1
0.21%: UACC62P
< 0%: all other assays above

CC(C)c1cnn2c(NCc3ccccc3)cc(NCCCCCCN)nc12
7.36%: UACC62P
< 0%: all other assays above

CC(C)(C)OC(=O)CN(Cc1ccc(Cl)cc1)Cc1ccc([N+](=O)[O-])s1
< 0%: all assays above

CCCc1nc(C)c2c(=O)nc(-c3cc(S(=O)(=O)N4CCN(CC)CC4)ccc3OCC)[nH]n12 [Vardenafil]
< 0%: all assays above

CN1CCN(c2cc(C(=O)Nc3ccc4c(c3)-c3c(c(C(N)=O)nn3-c3ccc(F)cc3)CC4)c(Cl)cn2)CC1
< 0%: all assays above

CCc1cc2c(cc1N1CCC(N3CCOCC3)CC1)C(C)(C)c1[nH]c3cc(C#N)ccc3c1C2=O
2.61%: M249P
27.1%: UACC62R
3.15%: UACC62P
5.85%: M238R
< 0%: all other assays above

C[C@@H](O)[C@@H]1NC(=O)[C@H](CCCCN)NC(=O)[C@@H](Cc2c[nH]c3ccccc23)NC(=O)[C@H](Cc2ccccc2)NC(=O)[C@@H](NC(=O)[C@H](N)Cc2ccccc2)CSSC[C@@H](C(=O)N[C@H](CO)[C@@H](C)O)NC1=O [Octreotide]
< 0%: all assays above

O=c1cc(-c2cccc3c2Sc2ccccc2S3)oc(N2CCOCC2)c1
< 0%: all assays above

COc1cc2c(Nc3ccc(Cl)c(Cl)c3F)ncnc2cc1OC[C@@H]1C[C@@H]2CN(C)C[C@@H]2C1
< 0%: all assays above

Cc1ccc(C(=O)Nc2ccc(S(=O)(=O)O)c3cc(S(=O)(=O)O)cc(S(=O)(=O)O)c23)cc1NC(=O)c1cccc(NC(=O)Nc2cccc(C(=O)Nc3cc(C(=O)Nc4ccc(S(=O)(=O)O)c5cc(S(=O)(=O)O)cc(S(=O)(=O)O)c45)ccc3C)c2)c1 [Suramin sodium]
3.15%: UACC62P
10.4%: M249R
< 0%: all other assays above

O=P(O)(O)C(O)(Cc1cccnc1)P(=O)(O)O [Risedronate sodium]
1.85%: M249R
< 0%: all other assays above

Cc1c[nH]c(/C=C2\C(=O)Nc3ccccc32)c1CCC(=O)O
13.8%: UACC62P
< 0%: all other assays above

O=C(O)C[C@H](O)C[C@H](O)/C=C/c1c(C2CC2)nc2ccccc2c1-c1ccc(F)cc1 [Pitavastatin calcium]
43.5%: M238P
< 0%: all other assays above

N#CCNC(=O)c1ccc(-c2ccnc(Nc3ccc(N4CCOCC4)cc3)n2)cc1
< 0%: all assays above

CC[C@H]1OC(=O)[C@H](C)[C@@H](O[C@H]2C[C@@](C)(OC)[C@@H](O)[C@H](C)O2)[C@H](C)[C@@H](O[C@@H]2O[C@H](C)C[C@H](N(C)C)[C@H]2O)[C@](C)(OC)C[C@@H](C)C(=O)[C@H](C)[C@@H](O)[C@]1(C)O [Clarithromycin]
3.11%: UACC62P
< 0%: all other assays above

N=C(N)NC(=O)c1nc(Cl)c(N)nc1N [Amiloride]
< 0%: all assays above
